Results are given in words; binding and its absence hold for the method and conditions named. A result given as binding can be weak or reduced; the word gives no strength.

Amino acid sequences for entries named in this document (tags omitted).
UniProt Q9UBQ5: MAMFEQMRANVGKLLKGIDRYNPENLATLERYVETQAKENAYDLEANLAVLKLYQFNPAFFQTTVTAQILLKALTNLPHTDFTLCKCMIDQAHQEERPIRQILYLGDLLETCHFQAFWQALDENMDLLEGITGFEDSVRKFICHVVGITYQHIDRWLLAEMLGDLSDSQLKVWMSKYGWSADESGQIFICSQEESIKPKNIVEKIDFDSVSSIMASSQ

This test concerns the target human eIF3 subunit K (eIF3-K), yeast two-hybrid fusion (human) (UniProt Q9UBQ5). The test is described as follows: two-hybrid.

Consider “Lha0223 (VipF ortholog of Legionella hackeliae), yeast two-hybrid fusion (from UniProt A0A0A8UKD4) (enzyme)”, for which the binding entry is listed as “binds”. For “Llo3312 (VipF ortholog of Legionella longbeachae), yeast two-hybrid fusion (from UniProt D3HMS6) (enzyme)”, the binding entry was “binds”.

These data come from PMC10936415.
